Results from publication PMC13395443.
No constants are given. Whether binding was seen depends on the method and setting. In cells and extracts the contact can be indirect. Some binding calls cover weakened binding; strength is not graded here. For some assays here: Tags and fused reporters may be left off the sequences shown.

Assays:
[1] = molecular target: STAT5B, FLAG-tagged or V5-tagged (pTwist-FLAG-STAT5B, pTwist-V5-STAT5B) (human) (UniProt P51692); assay: co-IP; HEK293T co-transfected with FLAG- and V5-tagged STAT1 and STAT5B; whole cell lysates in RIPA buffer 24 h post transfection; anti-FLAG M2 magnetic beads, 4 h at 4 °C; five washes with RIPA buffer; immunoblots with anti-V5 and anti-FLAG
[2] = molecular target: T1, STAT1, FLAG-tagged or V5-tagged (pTwist-FLAG-STAT1, pTwist-V5-STAT1) (human), P42224; assay: as above; conditions: remark: other sources report otherwise
T1 chain: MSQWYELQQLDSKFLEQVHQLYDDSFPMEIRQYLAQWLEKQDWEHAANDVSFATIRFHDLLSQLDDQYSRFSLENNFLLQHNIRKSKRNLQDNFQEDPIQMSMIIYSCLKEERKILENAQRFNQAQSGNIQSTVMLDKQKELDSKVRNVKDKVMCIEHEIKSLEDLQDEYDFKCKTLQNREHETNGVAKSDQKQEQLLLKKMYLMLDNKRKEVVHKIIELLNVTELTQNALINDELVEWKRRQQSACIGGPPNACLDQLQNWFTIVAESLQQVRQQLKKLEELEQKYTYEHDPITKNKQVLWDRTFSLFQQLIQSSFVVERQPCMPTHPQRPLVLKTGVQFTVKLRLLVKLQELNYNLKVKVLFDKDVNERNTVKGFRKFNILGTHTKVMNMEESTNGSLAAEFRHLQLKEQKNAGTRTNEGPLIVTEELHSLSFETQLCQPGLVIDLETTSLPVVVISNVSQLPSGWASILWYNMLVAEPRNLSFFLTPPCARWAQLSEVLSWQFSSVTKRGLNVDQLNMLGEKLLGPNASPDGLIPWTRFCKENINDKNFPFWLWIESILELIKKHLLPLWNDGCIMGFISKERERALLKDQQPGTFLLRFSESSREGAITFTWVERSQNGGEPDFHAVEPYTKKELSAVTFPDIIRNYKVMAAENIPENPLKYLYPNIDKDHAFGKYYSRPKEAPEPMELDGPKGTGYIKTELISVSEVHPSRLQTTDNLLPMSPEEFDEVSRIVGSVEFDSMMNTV

[3] = molecular target: T2, STAT5B, FLAG-tagged or V5-tagged (pTwist-FLAG-STAT5B, pTwist-V5-STAT5B) (human), P51692; assay: as above; conditions: remark: other sources report otherwise
T2 chain: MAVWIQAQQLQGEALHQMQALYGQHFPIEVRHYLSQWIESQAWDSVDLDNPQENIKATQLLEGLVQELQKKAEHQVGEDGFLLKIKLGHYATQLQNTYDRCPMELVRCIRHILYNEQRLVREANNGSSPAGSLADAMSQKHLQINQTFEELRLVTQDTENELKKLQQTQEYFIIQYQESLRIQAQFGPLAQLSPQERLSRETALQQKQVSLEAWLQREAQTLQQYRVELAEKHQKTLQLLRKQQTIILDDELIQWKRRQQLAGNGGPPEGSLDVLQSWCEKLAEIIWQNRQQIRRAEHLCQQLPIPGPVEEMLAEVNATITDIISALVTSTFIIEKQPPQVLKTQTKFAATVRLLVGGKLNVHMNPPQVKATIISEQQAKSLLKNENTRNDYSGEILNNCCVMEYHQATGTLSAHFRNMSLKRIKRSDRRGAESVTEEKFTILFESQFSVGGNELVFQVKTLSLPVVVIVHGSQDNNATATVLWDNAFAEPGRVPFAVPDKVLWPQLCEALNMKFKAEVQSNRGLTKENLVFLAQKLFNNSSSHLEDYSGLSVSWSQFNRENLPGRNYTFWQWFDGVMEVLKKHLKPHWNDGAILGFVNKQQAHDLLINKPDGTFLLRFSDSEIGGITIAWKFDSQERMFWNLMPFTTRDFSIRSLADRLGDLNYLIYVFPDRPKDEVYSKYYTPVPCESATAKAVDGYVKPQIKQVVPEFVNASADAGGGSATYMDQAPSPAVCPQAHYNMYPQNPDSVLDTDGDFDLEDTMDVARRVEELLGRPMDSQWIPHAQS

[4] = molecular target: T3, STAT5B, endogenous (human (endogenous in NHLF and HDF hTERT)), P51692; assay: proximity ligation; HDF hTERT cells with or without 1 nM IFN-β for 1 h; fixed, permeabilised; mouse anti-STAT1 and rabbit anti-STAT5B; DuoLink In-situ Detection Reagents Far Red; PLA spots per nucleus counted; conditions: remark: other sources report otherwise
T3 chain: T2 chain

[5] = molecular target: T3, STAT5B, endogenous (human (endogenous …)); assay: co-IP; endogenous STAT1 and STAT5B in NHLF cells treated with 1 nM IFN-β for 1 h or left untreated; immunoblot; conditions: remark: other sources report otherwise

**Q.** For “STAT5B, FLAG-tagged or V5-tagged (pTwist-FLAG-STAT5B, pTwist-V5-STAT5B) (from UniProt P51692 1-787)”, which binding [1] is on record?
**A.** binds

B1: STAT1, FLAG-tagged or V5-tagged (pTwist-FLAG-STAT1, pTwist-V5-STAT1), P42224 1-750 (protein)
chain: T1 chain
**Q.** For B1, which binding [2] is on record?
**A.** binds

**Q.** What about the binding [3] of the same molecule?
**A.** binds

B2: STAT1, endogenous, P42224 1-750 (protein)
chain: T1 chain
**Q.** B2 was tested. Which binding [4] did it give?
**A.** binds

**Q.** And the binding [5]?
**A.** binds
